Results are given in words; binding and its absence hold for the method and conditions named. Binding seen in cells or lysates may run through a third protein.
Molecular target: Argonaute 2 (Ago2) (mouse (endogenous in OT-I CD8+ T cells)) (UniProt Q8CJG0)
Test: co-IP

The chains behind the UniProt entries cited, without tags or fusion partners. Where a name states a change or a piece, a line headed by the entry shows the natural chain unless it says otherwise.
UniProt Q8CJG0: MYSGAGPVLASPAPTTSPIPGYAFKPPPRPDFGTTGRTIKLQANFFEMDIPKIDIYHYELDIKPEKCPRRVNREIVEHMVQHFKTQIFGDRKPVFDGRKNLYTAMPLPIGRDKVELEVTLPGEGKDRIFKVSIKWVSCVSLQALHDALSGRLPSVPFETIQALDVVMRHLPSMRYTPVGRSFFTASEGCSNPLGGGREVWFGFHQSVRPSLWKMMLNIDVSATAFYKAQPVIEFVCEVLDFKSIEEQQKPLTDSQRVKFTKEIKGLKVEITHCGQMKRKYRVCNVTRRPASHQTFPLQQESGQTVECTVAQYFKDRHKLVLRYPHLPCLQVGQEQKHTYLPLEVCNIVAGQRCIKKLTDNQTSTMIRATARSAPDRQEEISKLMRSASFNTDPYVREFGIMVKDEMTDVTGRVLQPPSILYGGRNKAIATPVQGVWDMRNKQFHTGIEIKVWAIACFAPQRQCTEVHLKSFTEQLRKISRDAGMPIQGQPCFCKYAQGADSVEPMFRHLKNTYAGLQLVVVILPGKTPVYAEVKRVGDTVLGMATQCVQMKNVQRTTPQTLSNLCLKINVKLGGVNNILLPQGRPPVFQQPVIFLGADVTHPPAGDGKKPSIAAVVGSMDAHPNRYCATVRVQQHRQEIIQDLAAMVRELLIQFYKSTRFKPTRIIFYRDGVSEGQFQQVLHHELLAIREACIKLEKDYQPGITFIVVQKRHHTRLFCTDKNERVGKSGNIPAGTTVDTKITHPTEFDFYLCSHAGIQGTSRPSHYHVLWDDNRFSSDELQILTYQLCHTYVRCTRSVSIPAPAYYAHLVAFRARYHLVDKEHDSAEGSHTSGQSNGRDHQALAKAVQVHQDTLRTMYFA
UniProt Q3UHK8: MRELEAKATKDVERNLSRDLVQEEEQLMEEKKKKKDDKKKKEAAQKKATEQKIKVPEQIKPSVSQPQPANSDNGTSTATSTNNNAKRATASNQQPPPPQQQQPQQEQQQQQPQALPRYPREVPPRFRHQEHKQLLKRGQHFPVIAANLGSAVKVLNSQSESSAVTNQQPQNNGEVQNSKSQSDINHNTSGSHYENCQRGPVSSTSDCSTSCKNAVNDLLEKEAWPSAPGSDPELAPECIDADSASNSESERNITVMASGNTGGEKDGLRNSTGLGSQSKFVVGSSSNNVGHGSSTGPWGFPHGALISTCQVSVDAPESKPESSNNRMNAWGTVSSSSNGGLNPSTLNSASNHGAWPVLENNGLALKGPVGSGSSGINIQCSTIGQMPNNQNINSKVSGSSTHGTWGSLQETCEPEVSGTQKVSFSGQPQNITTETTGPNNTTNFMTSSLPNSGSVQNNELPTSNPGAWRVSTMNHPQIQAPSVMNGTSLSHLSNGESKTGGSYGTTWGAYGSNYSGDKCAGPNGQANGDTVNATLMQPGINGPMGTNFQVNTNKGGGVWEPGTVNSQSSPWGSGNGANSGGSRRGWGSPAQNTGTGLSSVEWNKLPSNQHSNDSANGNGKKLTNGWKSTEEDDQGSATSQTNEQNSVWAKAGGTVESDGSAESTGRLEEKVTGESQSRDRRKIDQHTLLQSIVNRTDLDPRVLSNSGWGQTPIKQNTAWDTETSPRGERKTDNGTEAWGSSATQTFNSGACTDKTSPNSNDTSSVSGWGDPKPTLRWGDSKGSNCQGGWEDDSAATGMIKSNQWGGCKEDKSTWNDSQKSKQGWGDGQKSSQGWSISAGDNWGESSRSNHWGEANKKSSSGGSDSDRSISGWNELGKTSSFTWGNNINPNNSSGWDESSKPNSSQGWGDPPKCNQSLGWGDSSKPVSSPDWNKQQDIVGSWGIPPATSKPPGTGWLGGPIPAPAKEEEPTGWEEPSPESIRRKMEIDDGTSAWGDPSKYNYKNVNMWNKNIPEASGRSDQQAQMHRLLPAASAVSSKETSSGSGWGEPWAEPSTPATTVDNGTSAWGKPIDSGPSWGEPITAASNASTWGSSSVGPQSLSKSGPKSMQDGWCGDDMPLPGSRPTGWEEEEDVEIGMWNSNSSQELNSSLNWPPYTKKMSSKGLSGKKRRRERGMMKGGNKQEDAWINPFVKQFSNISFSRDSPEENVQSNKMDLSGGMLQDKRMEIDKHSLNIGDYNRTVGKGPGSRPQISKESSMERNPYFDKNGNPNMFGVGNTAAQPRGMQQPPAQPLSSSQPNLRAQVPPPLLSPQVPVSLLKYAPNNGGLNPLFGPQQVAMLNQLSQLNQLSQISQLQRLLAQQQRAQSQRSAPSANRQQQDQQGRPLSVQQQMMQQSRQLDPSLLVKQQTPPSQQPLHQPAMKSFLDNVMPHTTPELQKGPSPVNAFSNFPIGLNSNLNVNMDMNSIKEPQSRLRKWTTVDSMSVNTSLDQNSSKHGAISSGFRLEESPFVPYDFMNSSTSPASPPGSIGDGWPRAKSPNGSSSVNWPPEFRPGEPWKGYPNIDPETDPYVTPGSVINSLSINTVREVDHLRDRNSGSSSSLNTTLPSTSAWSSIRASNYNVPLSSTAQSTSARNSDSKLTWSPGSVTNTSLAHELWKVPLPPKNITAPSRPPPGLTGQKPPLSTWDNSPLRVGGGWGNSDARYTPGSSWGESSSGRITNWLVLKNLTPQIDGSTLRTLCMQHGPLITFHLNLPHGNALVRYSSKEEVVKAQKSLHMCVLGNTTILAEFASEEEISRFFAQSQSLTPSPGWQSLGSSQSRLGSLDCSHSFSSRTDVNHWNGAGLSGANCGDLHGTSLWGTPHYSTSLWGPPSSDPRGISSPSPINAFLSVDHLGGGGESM

binding: no binding
Substance: GW182 (TNRC6A), longer isoform (from UniProt Q3UHK8)

Source: article doi:10.1101/2020.05.17.100339
